Test system: E. tenella
Assay: Eimeria infection (coccidiosis) in chickens: survival, body weight, clinical symptoms, gut lesions, excreted oocysts
Format: in vivo
Procedure: FIGS. 3 A-F show the effect of BPP on the survival rate (FIG. 3A), sick bird appearance (FIG. 3B) and clinical symptoms (FIG. 3C) in the chickens. One-day-old chickens were fed with control diet for 14 days. On day 14, the birds were infected with vehicle (CTR) or E. tenella (ET) and fed with control diet (CTR and ET groups) and the diet containing 6 mg/kg maduramicin (ET+Mad), or 5%, or 1%, or 0.5% of BPP (ET+BPP) for additional 7 days. After the birds were sacrificed, the cecum was dissected and fixed for hematoxylin and eosin Y staining. The representative images of cecal hemorrhagic lesions (FIG. 3D) and histopathology (FIG. 3E) are shown.
One-d-old Lohmann broiler chicks hatched at Taichung Hatchery (Taiwan) were wing-banded upon arrival, weighed, and randomly placed in Petersime starter brooder units. At 1 and 2 d post-hatch, the birds were given free access to water and diets. […] Growth performance (body weight and feed conversion), pathology (bloody droppings and gut morphometry) and survival rate were measured and examined. […]
Since B. pilosa was claimed to treat protozoan and bacterial infections, we tested whether B. pilosa could protect the chickens from coccidiosis. […] Body weight was measured. […]
The excretion of oocysts is an important indicator of the efficacy of anti-coccidial drug. Thus, we assessed the number of excreted oocysts from the chickens with Eimeria infection. […]

Which results are given for `CO[C@@H]1[C@@H](OC)[C@H](C)[C@@](O)(CC(=O)O)O[C@H]1[C@H](C)[C@H]1O[C@@]2(CC[C@@](C)([C@H]3CC[C@@](C)([C@@H]4O[C@@H]([C@H]5O[C@](C)(O)[C@H](C)C[C@@H]5C)C[C@@H]4O[C@@H]4C[C@H](OC)[C@@H](OC)[C@H](C)O4)O3)O2)C[C@H](O)[C@H]1C` [maduramicin, Maduramicin]?
Body weight Day 7 (before infection and treatment (control diet until day 14)): 65.5 ± 5.7 g; Body weight Day 14 (day of E. tenella infection, start of treatment diet): 111.8 ± 2.9 g
